{"source": "PubChem BioAssay AID743454 (Peter MacCallum Cancer Centre, 2014)", "assay": "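Knock-downs lowering viability or raising caspase 3/7 activity in vorinostat-treated resistant cells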 (primary screen)", "cells": "human HCT116-VR colon cancer cells, selected for vorinostat resistance", "reagent": "siRNA pool against human genes, 40 nM siRNA pool", "duration": "vorinostat for 24 h, read-out about 72 h after transfection", "treatment": "vorinostat at 2.5 µM final", "measured": "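Cell viability by CellTiter-Fluor and caspase 3/7 activity by luminescence, each scaled to mock wells per plate, duplicates averaged, then robust z-scored over all plates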", "scale": "viability robust z-score: higher = more viable cells than screen typical; caspase robust z-score: higher = more caspase 3/7 activity than screen typical", "hit rule": "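a knock-down is a hit when classed RV1 or RV2 for lowered viability, or CA1 or CA2 for caspase activation; those lethal without drug were dropped; hits were retested singly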", "note": "Here is one part, drawn at random, of about 18,000 reagents tested. 450 of all reagents (2.5%) were called active. 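Single biological run; no consistent viability z cut-off exists, so the class columns, not z-scores, define the calls.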"}
{"Gene": "BANF1 (barrier to autointegration nuclear assembly factor 1)", "PubChem SID": "SID134315865", "viability hit class": "no change", "caspase hit class": "no change", "viability robust z-score": 0.4, "caspase robust z-score": 0.77, "activity call": "inactive"}
{"Gene": "KATNB1 (katanin regulatory subunit B1)", "PubChem SID": "SID152153311", "viability hit class": "no change", "caspase hit class": "no change", "viability robust z-score": -0.6, "caspase robust z-score": 0.34, "activity call": "inactive"}
{"Gene": "OVCH1 (ovochymase 1)", "PubChem SID": "SID135623746", "viability hit class": "no change", "caspase hit class": "no change", "viability robust z-score": 0.22, "caspase robust z-score": -0.96, "activity call": "inactive"}
{"Gene": "ARID1A (AT-rich interaction domain 1A)", "PubChem SID": "SID152147093", "viability hit class": "no change", "caspase hit class": "no change", "viability robust z-score": -1.1, "caspase robust z-score": 0.56, "activity call": "inactive"}
{"Gene": "PDCD11 (programmed cell death 11)", "PubChem SID": "SID152148210", "viability hit class": "no change", "caspase hit class": "no change", "viability robust z-score": -0.68, "caspase robust z-score": 1.46, "activity call": "inactive"}
{"Gene": "IRF2BPL (interferon regulatory factor 2 binding protein like)", "PubChem SID": "SID134312167", "viability hit class": "no change", "caspase hit class": "no change", "viability robust z-score": 0.24, "caspase robust z-score": 1.75, "activity call": "inactive"}
{"Gene": "JADE2 (jade family PHD finger 2)", "PubChem SID": "SID134322178", "viability hit class": "no change", "caspase hit class": "no change", "viability robust z-score": -0.04, "caspase robust z-score": 0.7, "activity call": "inactive"}
{"Gene": "RIPPLY3 (ripply transcriptional repressor 3)", "PubChem SID": "SID134324845", "viability hit class": "no change", "caspase hit class": "no change", "viability robust z-score": 0.37, "caspase robust z-score": -0.02, "activity call": "inactive"}
{"Gene": "OR6C6 (olfactory receptor family 6 subfamily C member 6)", "PubChem SID": "SID134329934", "viability hit class": "no change", "caspase hit class": "no change", "viability robust z-score": 0.35, "caspase robust z-score": 0.57, "activity call": "inactive"}
{"Gene": "SFI1 (SFI1 centrin binding protein)", "PubChem SID": "SID152154885", "viability hit class": "no change", "caspase hit class": "no change", "viability robust z-score": 0.49, "caspase robust z-score": 4.36, "activity call": "inactive"}
{"Gene": "SELPLG (selectin P ligand)", "PubChem SID": "SID152154802", "viability hit class": "no change", "caspase hit class": "no change", "viability robust z-score": -1.34, "caspase robust z-score": -0.34, "activity call": "inactive"}
{"Gene": "ALG2 (ALG2 alpha-1,3/1,6-mannosyltransferase)", "PubChem SID": "SID152148135", "viability hit class": "no change", "caspase hit class": "no change", "viability robust z-score": 0.94, "caspase robust z-score": 0.2, "activity call": "inactive"}
{"Gene": "ZW10 (zw10 kinetochore protein)", "PubChem SID": "SID134310184", "viability hit class": "no change", "caspase hit class": "no change", "viability robust z-score": -0.66, "caspase robust z-score": -1.15, "activity call": "inactive"}
{"Gene": "IRS1 (insulin receptor substrate 1)", "PubChem SID": "SID56478471", "viability hit class": "no change", "caspase hit class": "no change", "viability robust z-score": -1.74, "caspase robust z-score": 2.77, "activity call": "inactive"}
